We go through one substance from patent US20160054314A1.

This assay deals with BirA-biotinylated fd-tet-APpIII phage virion (biotin acceptor peptide fused in front of pIII) (bacteriophage fd) (UniProt P03661). Nature of the assay: western blot of BirA-treated phage probed with SAV-HRP. On the technique in general: A western blot detects proteins with antibodies after separation by electrophoresis.

These are yes or no findings as the source states them, for the method shown. Some entries that bind do so weakly or less than the wild type.

Consider “streptavidin conjugated with horseradish peroxidase (SAV-HRP) (from UniProt P22629 37-163)”, for which the binding result is listed as “binds”.
